Some of the results follow.

Protein sequences, listed by entry. Tags and fused reporters are not part of them.
UniProt Q0JBA9, entry or part of it: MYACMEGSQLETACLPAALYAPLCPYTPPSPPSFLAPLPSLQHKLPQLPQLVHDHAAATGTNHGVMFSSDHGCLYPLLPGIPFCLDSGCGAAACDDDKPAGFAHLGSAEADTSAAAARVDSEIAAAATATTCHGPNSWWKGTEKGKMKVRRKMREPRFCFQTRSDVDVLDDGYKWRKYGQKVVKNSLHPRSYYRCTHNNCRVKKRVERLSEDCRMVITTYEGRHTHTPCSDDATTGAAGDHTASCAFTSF

For the experiment, the target named is OsWRKY34 (Oryza sativa, UniProt Q0JBA9 1-250). In words: protein-binding microarray (RPBM); PBS, 2% BSA, 51.3 ng/ul salmon testes DNA, 50 uM zinc acetate, 200 nM TF, 25 C, 1 h; high values mean tight binding. The following applies: protein: recombinant; tags: N-terminal polyhistidine and DsRed monomer fusion (pET32a); label: CyDye5-dUTP incorporated in the synthesized complementary strand; 3' TTTTT single-stranded linker to array surface; dsDNA, one strand shown. The method in brief:
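Binding signal is defined as the fluorescence intensity of each feature in arbitrary units, read on an Axon 4000B scanner. Transcription factors with N-terminal polyhistidine and DsRed fusions came from E. coli BL21-CodonPlus and were purified on Ni–NTA. They were incubated at 200 nM for 1 h at 25 °C on a custom Agilent array that had been made double-stranded with Cy5-dUTP, with 50 µM zinc acetate present, and the array was washed.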
On to “ACTATTCTATTATGATGATTAGGCTGTTATTGGTTGAAGTCGGAGTCACCTAGTGCAG”, for which the binding signal is 9550 fluorescence intensity (a.u.).
Then “CATAATATTTTCCTCCTATCTGTTCAGCTTCCATTTTTCCCGGAGTCACCTAGTGCAG”, with 9080 fluorescence intensity (a.u.).
In the case of “GACCATACTCGCCTCAACCATTGAACGTGCCCTAATATGCCGGAGTCACCTAGTGCAG”, the binding signal is 10300 fluorescence intensity (a.u.).
Then “TGGACAACATATGTCACAACCTCTTACCTATCTCTCTCTTCGGAGTCACCTAGTGCAG”, with 9970 fluorescence intensity (a.u.); and “ACTTCTGTCCTTGCTCCGGCCGCCGCTGCCGCCAGCCATGCGGAGTCACCTAGTGCAG”, with 9090 fluorescence intensity (a.u.); and “CACGTTTTTTTTCTATCCGTATTTTTTTTCAGTTTTTTCGCGGAGTCACCTAGTGCAG”, with 8910 fluorescence intensity (a.u.).
Then “GTGGAATCAAGGGTCGGGATGGCGGAAGGGTTGAGGAGTACGGAGTCACCTAGTGCAG”, with 11700 fluorescence intensity (a.u.); and “CTCGCCTCATCCAGCATCAAATCGATACCAACATCGCCGGCGGAGTCACCTAGTGCAG”, with 9060 fluorescence intensity (a.u.).
“AATCCATTGTTCATCGTCTCCCTCACCGGCGTTTGTGTTCCGGAGTCACCTAGTGCAG”: the binding signal was 8720 fluorescence intensity (a.u.).
With “TCACCAGATCTGAGATCTCTTCTTTCGCATGGCACCTCAACGGAGTCACCTAGTGCAG” the figure was 8590 fluorescence intensity (a.u.).
Then “TACTTGGACTTTCCTTTTATTTTTTTTCTTTTTCTCCGATCGGAGTCACCTAGTGCAG”, with 8410 fluorescence intensity (a.u.).
With “GTTGGTGGTCGTTGGATCCTATAATTGGCATAGTATATTCCGGAGTCACCTAGTGCAG” the figure was 8150 fluorescence intensity (a.u.); with “CCTTACTCCTCGTCTGCAGCCGCCAACACGTACGATTACACGGAGTCACCTAGTGCAG”, 12000 fluorescence intensity (a.u.); with “TTTCTTACACTAAAATTGGTTCGAATATCGTGCGTCCGGCCGGAGTCACCTAGTGCAG”, 8440 fluorescence intensity (a.u.).
As to “GTTATTCATCAGGAATTCTGTGGCATGTTTGATTAGTTACCGGAGTCACCTAGTGCAG”, the binding signal was 9000 fluorescence intensity (a.u.).
Then “GCACCTGTCAACTCTTTTTCTCTTTAACCACATCTTATTTCGGAGTCACCTAGTGCAG”, with 8520 fluorescence intensity (a.u.).
Then “TTGATATACCTGTCAGCATGCAGCATGCTATCTCAGTCTTCGGAGTCACCTAGTGCAG”, with 9210 fluorescence intensity (a.u.); and “TTAGCACCAGCTTTGACAATTGTGCCCTGATTCTTGTTACCGGAGTCACCTAGTGCAG”, with 9000 fluorescence intensity (a.u.).
Take “AGGTGTAATAGTATTTTGTTGTCTAATTGGTTTTGATTGTCGGAGTCACCTAGTGCAG”: the binding signal was 11400 fluorescence intensity (a.u.).
Take “TATTACGCGACACTACCCCTCTCCTCTTTCGTTTCTTTCCCGGAGTCACCTAGTGCAG”: the binding signal was 8430 fluorescence intensity (a.u.).
In the case of “GCATTGTTAACTTGATTACTCTGTCCGTTTCATATTGTACCGGAGTCACCTAGTGCAG”, the binding signal is 12300 fluorescence intensity (a.u.).
With “GGTAAATTTTTTCATGAAAATCATTTCATATAATTATTCTCGGAGTCACCTAGTGCAG” the figure was 8920 fluorescence intensity (a.u.).
Then “AGCAAAAGTTTTGCCATTTTGTAGCACTTTTTGCCATTTTCGGAGTCACCTAGTGCAG”, with 8250 fluorescence intensity (a.u.); and “TCGCCGTGAAAGTTGCTCAACACCCGCTGAATTCTCGTTCCGGAGTCACCTAGTGCAG”, with 8580 fluorescence intensity (a.u.).
With “GACATACTTTTTGGTACATCCAGTGCTGCTGCTATAAAACCGGAGTCACCTAGTGCAG” the figure was 8810 fluorescence intensity (a.u.); with “CTATGCCGCCAGCCATCTCGAGCTCCTCCTGACGGTTCTTCGGAGTCACCTAGTGCAG”, 9520 fluorescence intensity (a.u.); with “AACCCTTTTTCTCCCGGGTCCATCTCCATCTGCTGGATAGCGGAGTCACCTAGTGCAG”, 9300 fluorescence intensity (a.u.).
For the sequence “AACTATTTCTACCTCTAAGCCCATTTAAGCTTCTCGGCCCCGGAGTCACCTAGTGCAG”, the binding signal is 8800 fluorescence intensity (a.u.).
Then “CTATGTTCATCTGCATGACTGCATGCAACTGTGATTGAACCGGAGTCACCTAGTGCAG”, with 8170 fluorescence intensity (a.u.); and “TTTCTTCCTCGATCTTTGAATCAAATTCAGCCTTTTCTTTCGGAGTCACCTAGTGCAG”, with 8490 fluorescence intensity (a.u.); and “CCATGTATCTAGTACCAGTAGAACAGTTGTACTACCTCCTCGGAGTCACCTAGTGCAG”, with 8220 fluorescence intensity (a.u.).
Then “AAGGGAAAATCCTCTAATTTCTTTTTTTTTATTTTCTTTTCGGAGTCACCTAGTGCAG”, with 10100 fluorescence intensity (a.u.); and “TCAGCCTCAGTACCCACCACCTCCACGCTCGCGCCGTCGGCGGAGTCACCTAGTGCAG”, with 12500 fluorescence intensity (a.u.).
Then “GTTCTCTTCACTTCTTCTCAGTTTTTTAACTCTCTCTGAACGGAGTCACCTAGTGCAG”, with 8280 fluorescence intensity (a.u.); and “CTTTCCTCTCTTTTCTGATATTTGATTGAATAGATATTCTCGGAGTCACCTAGTGCAG”, with 8130 fluorescence intensity (a.u.).
With “TGCACCTGTTATTTTCCCGTTCTCTTGTTCTTTCCATTTGCGGAGTCACCTAGTGCAG”, the binding signal is 15700 fluorescence intensity (a.u.).
With “TATATTTTTGGATCTTCTAGTGTACATTATTTTGTTACAACGGAGTCACCTAGTGCAG” the figure was 8590 fluorescence intensity (a.u.); with “CCGCCGCCGCCTCCTGCTCCTTCGACCTGCCCCGGCCCCGCGGAGTCACCTAGTGCAG”, 8870 fluorescence intensity (a.u.); with “TGGAGGAGAGGTCGCGATGGGAGTCCGAATGTGGGCGGGACGGAGTCACCTAGTGCAG”, 8150 fluorescence intensity (a.u.).
With “TCTGGTACTTTCTCTGTTCATGTCTTTATGCACTGTTGCACGGAGTCACCTAGTGCAG” the figure was 11100 fluorescence intensity (a.u.); with “ATGTGTAACTGACATGTAGGTTCTATGGTTTTAATTACTTCGGAGTCACCTAGTGCAG”, 8310 fluorescence intensity (a.u.); with “CGAACTCTTCTTTCAATATTGCTTATTTATAATTCCGAATCGGAGTCACCTAGTGCAG”, 8700 fluorescence intensity (a.u.).
